# According to PubChem BioAssay AID1347076 (National Center for Advancing Translational Sciences (NCATS), 2019):
# The whole screen tested about 400,000 compounds, of which about 13,000 (3.2%) were called active. Inconclusive means that the source gave no clear call. Such entries were picked first, then a sample of the others. Calls come from the whole dose curve; as a rule, active = well fitted cell-killing curve with a large enough effect; inconclusive = small, poorly fitted or top-dose-only effect, or effect the other way; inactive = flat fitted curve, though single readings scatter. A potency beside an inconclusive call is a rough fit, not a confirmed value.
# Experiment: qHTS assay for MDR1-selective chemotherapeutics: Primary screen using the drug-selected MDR subline cells KB-V1; note: nearly all actives have a fitted effect of over 60% in size
# Settings: KB-V1 MDR cells viability, CellTiter-Glo, 72 h; activity change, negative = cytotoxicity: at 46.1 µM (top of the series)
# In short: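 KB-V1 MDR subline cells in DMEM (phenol-red free, 10% FBS) exposed to compounds in qHTS concentration series for 72 h at 37 degrees C. Viability read by CellTiter-Glo luminescence; concentration-effect curves fitted after normalization and correction.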
# % is set by controls: 0 for no effect and ±100 for the full control effect; potency is the fitted concentration of half-maximal effect.
SMILES,Potency,"activity change, negative = cytotoxicity"
CC1CN(c2ncnc3c2c(-c2ccccc2)cn3-c2ccc(F)cc2)CC(C)O1 (configuration not stated),"inconclusive: 18.4 µM [cytotoxic, single point]",
COC(=O)c1cccc(Nc2c(-c3cc(Br)ccc3O)nc3nc[nH]n23)c1,"inconclusive: 25.9 µM [rising, partial curve, poor fit]",
COc1ccccc1C(=O)Nc1nc2ccccc2[nH]1,active: 4.11 µM,
CC(=O)Nc1ccc(C(=O)N2c3ccccc3N=C(c3ccc4c(c3)OCO4)C2C(=O)NCc2ccccc2)cc1 (configuration not stated),"inconclusive: 10.3 µM [cytotoxic, partial curve, poor fit]",
Cc1onc(-c2c(Cl)cccc2Cl)c1C(=O)N1CCN(c2ccccc2)CC1,"inconclusive: 23.1 µM [cytotoxic, single point]",
COc1cccc(NC(=O)c2cc(-c3cccnc3)nc3c(Cl)cccc23)c1,active: 2.91 µM,
C=CCNC(=O)C1CCN(S(=O)(=O)c2ccc(Br)cc2)CC1,"inconclusive: 23.1 µM [cytotoxic, single point]",
O=C(/C=C/c1cccc([N+](=O)[O-])c1)Nc1ccccc1N1CCOCC1,"inconclusive: 2.59 µM [cytotoxic, partial curve]",
CN(Cc1ccccc1)C(=O)C1CCC(CNS(=O)(=O)c2cccc3cccnc23)CC1 (configuration not stated),active: 9.2 µM,
CCOc1ccc(OCc2ccc(C(=O)Nc3cccnc3)cc2)cc1,"inconclusive: 16.4 µM [cytotoxic, single point]",
COc1ccc(C(=O)Nc2ccccc2C(=O)O)cc1NC(=O)C(c1ccccc1)c1ccccc1,"inconclusive: 1.46 µM [rising, full curve, poor fit]",
COc1cc(Nc2nc(SCC#N)nc3ccccc23)cc(OC)c1OC,active: 20.6 µM,
COc1ccc2nc(NC(=O)CSc3nnc(C)s3)sc2c1,"inconclusive: 35.5 µM [rising, partial curve, poor fit]",
CC(C)(O)c1cc2ccc(C#CCCN3C(=O)c4ccccc4C3=O)cc2c(=O)o1,,inactive: -0.95%
O=c1cc(Cc2ccc([N+](=O)[O-])cc2)[nH]c(=O)[nH]1,,inconclusive: -18.3%
N=c1c(C(=O)NC2CCCC2)cc2c(=O)n3ccccc3nc2n1C1CCCC1,"inconclusive: 35.5 µM [cytotoxic, single point]",
CC1(C)CC(=O)c2c(O)c(-c3ccccc3)c(=O)n(-c3ccccc3)c2C1,active: 13 µM,
COc1ccc(CCn2c(=O)c3cccnc3n(Cc3ccc([N+](=O)[O-])cc3)c2=O)cc1OC,"inconclusive: 0.0065 µM [rising, full curve, poor fit]",
CC(C)c1ccc(S(=O)(=O)Nc2ccc(O)c(Sc3nc4ccccc4s3)c2)cc1,active: 16.4 µM,
CSc1ccc(Cn2c(C)c(C(=O)NCc3ccc4c(c3)OCO4)sc2=O)cc1,"inconclusive: 14.6 µM [cytotoxic, partial curve]",
CN1CCc2c(sc3c2C(=O)NC(c2ccc(-c4cccc(Cl)c4)o2)N3)C1 (configuration not stated),"inconclusive: 23.1 µM [rising, single point]",

# Some of the entries so far, with bars between the fields:
SMILES | Potency | activity change, negative = cytotoxicity
COc1ccc2nc(NC(=O)CSc3nnc(C)s3)sc2c1 | inconclusive: 35.5 µM [rising, partial curve, poor fit] | 
CC(C)(O)c1cc2ccc(C#CCCN3C(=O)c4ccccc4C3=O)cc2c(=O)o1 |  | inactive: -0.95%
O=c1cc(Cc2ccc([N+](=O)[O-])cc2)[nH]c(=O)[nH]1 |  | inconclusive: -18.3%

# Remaining list, next part

SMILES,Potency,"activity change, negative = cytotoxicity"
CC[C@]12CCCN3CCc4c(n(c5ccccc45)C(=O)C1)C32 (some centres not stated),"inconclusive: 16.4 µM [cytotoxic, single point]",
CCOc1c(Br)cc(C(=O)Nc2cccc(S(=O)(=O)N3CCOCC3)c2)cc1OC,"inconclusive: 32.6 µM [cytotoxic, single point]",
CCCC(O)(c1ccc(OC)cc1)C(CN1CCOCC1)c1ccc(Cl)cc1 (configuration not stated),"inconclusive: 29.1 µM [cytotoxic, single point]",
O=C1C(Cl)=C(N2CCN(c3ccccc3[N+](=O)[O-])CC2)C(=O)c2ccccc21,"inconclusive: 18.4 µM [cytotoxic, single point]",
Cc1cccc(NC(=O)CN(C)S(=O)(=O)c2ccc(Br)cc2)n1,,inactive: -6.38%
CN(C)c1ccc(C2CNC(c3ccc(Cl)c([N+](=O)[O-])c3)c3[nH]c4ccccc4c32)cc1 (configuration not stated),,inactive: -23.8%
Cc1cnc(NC(=O)CSc2c(Cl)cccc2Cl)s1,"inconclusive: 29.1 µM [cytotoxic, single point]",
Cc1sc2ncnc(N3CCC(C(=O)Nc4nc(-c5cccs5)cs4)CC3)c2c1C,active: 5.17 µM,
CCN(CC)CC(O)CNc1ccnc2c(Cl)ccc(Cl)c12 (configuration not stated),"inconclusive: 16.4 µM [cytotoxic, single point]",
COc1ccc(NC(=O)NC[C@@H]2CC[C@@H](Cc3ccc(-c4ccccc4)cc3)O2)cc1,"inconclusive: 0.0259 µM [cytotoxic, full curve]",
COc1ccc(C(=O)C2CCCN(C(=O)c3noc4c3CCCC4)C2)cc1F (configuration not stated),,inactive: -9.38%
CCCCC(CC)CNC(=O)c1ccc2c(c1)OCO2 (configuration not stated),"inconclusive: 16.4 µM [cytotoxic, single point]",
Cc1ccccc1S(=O)(=O)N(C)C[C@@H]1OCc2ccccc2-c2c(n(C)c3ccccc23)C(=O)N([C@H](C)CO)C[C@@H]1C,"inconclusive: 7.31 µM [cytotoxic, partial curve]",
CCc1cc(=O)oc2cc(C)c(CN3CCCCC3)c(O)c12,active: 16.4 µM,
CCNC(=O)CON=C1c2ccccc2-c2ccccc21,,inactive: -24.6%
COc1ccccc1CN1CCCC(N2CCN(c3ccccc3OC)CC2)C1 (configuration not stated),"inconclusive: 18.4 µM [rising, partial curve, poor fit]",
O=[N+]([O-])c1nn(-c2ccc3c(c2)OCCO3)n(O)c1=NCc1ccc(F)cc1,"inconclusive: 20.6 µM [cytotoxic, partial curve, poor fit]",
COC(=O)c1cc(=O)n(Cc2cccs2)c(=Nc2ccc(F)cc2)s1,,inactive: -4.45%
COc1ccccc1C(=O)Nc1nnc(S(=O)(=O)N(C)Cc2ccccc2)s1,,inactive: -7.63%
CCOC(=O)CSC1=Nc2ccccc2C2=NC(CCC(=O)NCc3ccccc3)C(=O)N12 (configuration not stated),"inconclusive: 29.1 µM [rising, single point]",
COc1ccc(NC(=O)CN(c2cccc(C)c2C)S(=O)(=O)c2ccccc2)cc1OC,"inconclusive: 2.59 µM [cytotoxic, partial curve, poor fit]",
